Results are given in words; binding and its absence hold for the method and conditions named. Some results given as binding are weak or reduced against the parent protein; the word gives no strength.
What was measured:
[1] = biological target: T1, human RNA lariat debranching enzyme Dbr1, full-length (1-544) (human) (UniProt Q9UK59); assay: SEC; Superdex 200-Increase 10/300 in SEC buffer (50 mM Tris pH 8, 100 mM NaCl, 1 mM TCEP); about 100 ug Dbr1 injected, Drn1 added at an equimolar ratio; peak fraction on a Coomassie-stained denaturing gel; both purified
T1 sequence: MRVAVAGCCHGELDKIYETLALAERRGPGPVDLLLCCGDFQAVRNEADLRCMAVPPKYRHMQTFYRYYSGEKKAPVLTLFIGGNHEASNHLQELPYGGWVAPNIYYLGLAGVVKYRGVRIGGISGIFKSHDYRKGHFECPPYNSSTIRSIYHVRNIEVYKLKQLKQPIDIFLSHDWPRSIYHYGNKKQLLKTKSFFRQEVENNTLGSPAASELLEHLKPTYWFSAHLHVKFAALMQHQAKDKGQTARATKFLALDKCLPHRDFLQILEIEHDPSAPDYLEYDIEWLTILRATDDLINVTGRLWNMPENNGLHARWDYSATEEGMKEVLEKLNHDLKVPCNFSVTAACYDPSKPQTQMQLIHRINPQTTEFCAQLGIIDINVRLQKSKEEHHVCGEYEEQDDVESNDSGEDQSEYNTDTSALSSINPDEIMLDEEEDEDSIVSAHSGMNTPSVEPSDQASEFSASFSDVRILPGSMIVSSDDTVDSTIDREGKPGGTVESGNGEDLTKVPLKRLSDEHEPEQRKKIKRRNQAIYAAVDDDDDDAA

[2] = biological target: T2, trichothiodystrophy nonphotosensitive 1 (TTDN1), fluorescein-labeled (UniProt Q8TAP9); assay: fluorescence polarisation; fluorescein-labeled TTDN1 fixed at 2.5 nM; unlabeled Dbr1 titrated (3-fold dilution from 2.8 uM to 1 nM) or Drn1 at 225 nM; SEC buffer; black 96-well half-area plates; both purified
T2 sequence (chain, 5-iodoacetamido-fluorescein label on the cysteine residue at the C terminus): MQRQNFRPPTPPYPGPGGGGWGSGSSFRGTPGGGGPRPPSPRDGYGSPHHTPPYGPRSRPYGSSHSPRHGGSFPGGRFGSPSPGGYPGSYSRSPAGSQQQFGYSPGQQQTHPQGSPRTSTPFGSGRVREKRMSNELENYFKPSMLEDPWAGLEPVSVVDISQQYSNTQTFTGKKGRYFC

binding [1]: binds
binding [2]: no binding (tested: 225 nM)
B1: Drn1 (human Drn1 homolog, Cwf19-L1) (natural protein, UniProt Q69YN2 1-538, looked up)
chain: MAQKPLRLLACGDVEGKFDILFNRVQAIQKKSGNFDLLLCVGNFFGSTQDAEWEEYKTGIKKAPIQTYVLGANNQETVKYFQDADGCELAENITYLGRKGIFTGSSGLQIVYLSGTESLNEPVPGYSFSPKDVSSLRMMLCTTSQFKGVDILLTSPWPKCVGNFGNSSGEVDTKKCGSALVSSLATGLKPRYHFAALEKTYYERLPYRNHIILQENAQHATRFIALANVGNPEKKKYLYAFSIVPMKLMDAAELVKQPPDVTENPYRKSGQEASIGKQILAPVEESACQFFFDLNEKQGRKRSSTGRDSKSSPHPKQPRKPPQPPGPCWFCLASPEVEKHLVVNIGTHCYLALAKGGLSDDHVLILPIGHYQSVVELSAEVVEEVEKYKATLRRFFKSRGKWCVVFERNYKSHHLQLQVIPVPISCSTTDDIKDAFITQAQEQQIELLEIPEHSDIKQIAQPGAAYFYVELDTGEKLFHRIKKNFPLQFGREVLASEAILNVPDKSDWRQCQISKEDEETLARRFRKDFEPYDFTLDD
notes: human Drn1 homolog (Cwf19-L1); cDNA purchased from Genecopoeia, subcloned into a modified pET vector; source: E. coli BL21, purified (Ni column, Superdex-200)

— publication PMC10470207, “Activation of human RNA lariat debranching enzyme Dbr1 by binding protein TTDN1 occurs though an intrinsically disordered C-terminal domain” (The Journal of Biological Chemistry, 2023)
